No constants are given. Whether binding was seen depends on the method and setting. Binding seen in cells or lysates may run through a third protein. Some results given as binding are weak or reduced against the parent protein; the word gives no strength. For some assays here: Tags and fused reporters may be left off the sequences shown. One block for each molecule: values may come before it.
How the values were obtained:
[1] = molecular target: Flag-GluA2 (wild type), expressed in N2a cells (human) (UniProt P42262); experiment: co-IP; N2a cells co-transfected with Flag-GluA2 constructs and HA-GluA1 or HA-GluA3; control and SELENOK-KO cells, with or without a SELENOK overexpression plasmid; antibody on magnetic beads, Western blot
[2] = molecular target: Flag-GluA2 (wild type), expressed in HEK293 cells (human) (UniProt P42262); experiment: co-IP; HEK293 cells co-expressing Flag-GluA2 and HA-DHHC6; antibody on magnetic beads, lysate, Western blot; which partner was precipitated is not told

Sequences of proteins named here, by UniProt entry; tags and fusion partners are left off. Residues count along the entry.
UniProt P42262, residues 25-883: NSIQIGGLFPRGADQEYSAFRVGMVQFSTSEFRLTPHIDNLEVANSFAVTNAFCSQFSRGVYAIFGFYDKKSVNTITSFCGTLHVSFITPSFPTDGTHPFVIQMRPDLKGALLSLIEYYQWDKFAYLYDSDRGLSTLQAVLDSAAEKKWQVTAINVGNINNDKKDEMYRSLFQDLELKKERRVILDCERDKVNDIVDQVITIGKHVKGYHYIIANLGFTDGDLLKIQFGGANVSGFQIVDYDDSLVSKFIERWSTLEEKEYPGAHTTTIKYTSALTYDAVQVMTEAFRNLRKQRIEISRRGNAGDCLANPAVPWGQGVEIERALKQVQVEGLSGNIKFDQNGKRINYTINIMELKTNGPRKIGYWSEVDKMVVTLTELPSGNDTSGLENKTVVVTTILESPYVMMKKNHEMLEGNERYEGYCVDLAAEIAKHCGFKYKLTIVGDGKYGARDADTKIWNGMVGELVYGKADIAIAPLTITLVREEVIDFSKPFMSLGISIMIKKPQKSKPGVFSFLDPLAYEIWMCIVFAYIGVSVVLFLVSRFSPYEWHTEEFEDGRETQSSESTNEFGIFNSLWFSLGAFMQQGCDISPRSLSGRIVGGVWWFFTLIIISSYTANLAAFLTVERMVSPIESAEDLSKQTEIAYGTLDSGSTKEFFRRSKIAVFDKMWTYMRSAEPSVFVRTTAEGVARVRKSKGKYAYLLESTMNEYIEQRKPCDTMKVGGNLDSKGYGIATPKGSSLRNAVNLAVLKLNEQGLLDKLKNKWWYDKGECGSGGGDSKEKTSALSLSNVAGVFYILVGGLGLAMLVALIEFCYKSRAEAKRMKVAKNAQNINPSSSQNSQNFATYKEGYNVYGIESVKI
UniProt P42263, residues 29-894: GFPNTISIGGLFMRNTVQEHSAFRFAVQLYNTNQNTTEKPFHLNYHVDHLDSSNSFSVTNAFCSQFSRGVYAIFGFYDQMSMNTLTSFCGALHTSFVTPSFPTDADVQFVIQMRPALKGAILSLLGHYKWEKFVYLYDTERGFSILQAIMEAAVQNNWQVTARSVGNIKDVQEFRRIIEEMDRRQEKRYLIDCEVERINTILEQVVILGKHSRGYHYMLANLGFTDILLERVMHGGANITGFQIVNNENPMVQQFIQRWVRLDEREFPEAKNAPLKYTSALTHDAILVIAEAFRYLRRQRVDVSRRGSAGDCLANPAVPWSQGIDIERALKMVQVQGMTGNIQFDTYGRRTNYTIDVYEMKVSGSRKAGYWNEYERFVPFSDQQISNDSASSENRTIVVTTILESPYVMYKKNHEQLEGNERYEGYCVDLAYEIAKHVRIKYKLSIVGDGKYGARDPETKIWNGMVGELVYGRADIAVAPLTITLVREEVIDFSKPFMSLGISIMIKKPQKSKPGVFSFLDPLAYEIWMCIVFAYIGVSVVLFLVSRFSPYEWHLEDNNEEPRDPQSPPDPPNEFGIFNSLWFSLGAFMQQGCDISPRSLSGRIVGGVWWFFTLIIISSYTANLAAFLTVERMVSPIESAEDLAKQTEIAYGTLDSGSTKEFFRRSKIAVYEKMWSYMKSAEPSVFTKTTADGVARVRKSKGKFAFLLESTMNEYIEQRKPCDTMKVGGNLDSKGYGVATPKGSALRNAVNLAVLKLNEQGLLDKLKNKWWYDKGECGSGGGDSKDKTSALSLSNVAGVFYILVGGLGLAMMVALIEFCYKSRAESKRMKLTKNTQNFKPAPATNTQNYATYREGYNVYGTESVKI

binding [1]: binds
Molecule: HA-GluA3 (from UniProt P42263 29-894) (receptor)

binding [2]: binds
B1: HA-DHHC6 (enzyme, UniProt Q9H6R6 1-413)
chain: MGTFCSVIKFENLQELKRLCHWGPIIALGVIAICSTMAMIDSVLWYWPLHTTGGSVNFIMLINWTVMILYNYFNAMFVGPGFVPLGWKPEISQDTMYLQYCKVCQAYKAPRSHHCRKCNRCVMKMDHHCPWINNCCGYQNHASFTLFLLLAPLGCIHAAFIFVMTMYTQLYHRLSFGWNTVKIDMSAARRDPLPIVPFGLAAFATTLFALGLALGTTIAVGMLFFIQMKIILRNKTSIESWIEEKAKDRIQYYQLDEVFVFPYDMGSRWRNFKQVFTWSGVPEGDGLEWPVREGCHQYSLTIEQLKQKADKRVRSVRYKVIEDYSGACCPLNKGIKTFFTSPCTEEPRIQLQKGEFILATRGLRYWLYGDKILDDSFIEGVSRIRGWFPRKCVEKCPCDAETDQAPEGEKKNR

Source: publication PMC12446660
